# Reference: paper PMC7498331
# No constants are given. Whether binding was seen depends on the method and setting. Binding seen in cells or lysates may run through a third protein. Binding calls can cover weak binding; strength is not graded here.
# Biological target: Egr2 (UniProt P51774)
# Test: co-IP; whole cell extracts of transfected HEK293T cells diluted in TEN buffer; precipitation with anti-Egr2 antibodies (pre-immune serum as control) and protein A sepharose overnight at 4°C; western blot for Rnf40, Rnf20, myc or HA
row,Substance,binding
1,"HA-tagged Rnf20, amino acids 1-160 (from UniProt Q5VTR2 1-160) (domain or fragment)",no binding
2,"HA-tagged Rnf20, amino acids 1-550 (from UniProt Q5VTR2 1-550) (domain or fragment)",no binding
3,"HA-tagged Rnf20, amino acids 530-975 (from UniProt Q5VTR2 530-975) (domain or fragment)",binds
4,Rnf20 (from UniProt Q5VTR2 1-975),binds
5,Rnf40 (from UniProt O75150-1 1-1001),binds
6,"myc-tagged Rnf40, amino acids 780-1001 (from UniProt O75150-1 780-1001) (domain or fragment)",no binding
7,"myc-tagged Rnf40, first 620 amino acids (from UniProt O75150-1 1-620) (domain or fragment)",binds

# The next lines start with the values.
row,binding,Substance
1,no binding,"HA-tagged Rnf20, amino acids 140-550 (from UniProt Q5VTR2 140-550) (domain or fragment)"
2,binds,"myc-tagged Rnf40, amino acids 160-620 (from UniProt O75150-1 160-620) (domain or fragment)"
3,no binding,"myc-tagged Rnf40, amino acids 600-800 (from UniProt O75150-1 600-800) (domain or fragment)"
4,binds,"myc-tagged Rnf40, first 180 amino acids (from UniProt O75150-1 1-180) (domain or fragment)"

# Biological target: aminoterminal myc-tagged Rnf40 (UniProt O75150)
# Test: co-IP; whole cell extracts of transfected HEK293T cells containing aminoterminal myc-tagged Rnf40 and Egr2 fragments; precipitation with anti-myc antibodies; western blot
row,binding,Substance
1,no binding,"Egr2, amino acids 1-216 (from UniProt P51774-1) (domain or fragment)"
2,binds,"Egr2, amino acids 197-420 (from UniProt P51774-2) (domain or fragment)"
